Source: publication doi:10.1101/232272
Results are given in words; binding and its absence hold for the method and conditions named. Binding seen in cells or lysates may run through a third protein. Some results given as binding are weak or reduced against the parent protein; the word gives no strength. Tags and fused reporters may be left off the sequences shown. Values belong to the binder of their own block, whether it stands above or below them.

Legend:
[1] = target: T1, GST-tagged Sas6 (Drosophila) (UniProt Q9VAC8); experiment: pull-down
T1 sequence: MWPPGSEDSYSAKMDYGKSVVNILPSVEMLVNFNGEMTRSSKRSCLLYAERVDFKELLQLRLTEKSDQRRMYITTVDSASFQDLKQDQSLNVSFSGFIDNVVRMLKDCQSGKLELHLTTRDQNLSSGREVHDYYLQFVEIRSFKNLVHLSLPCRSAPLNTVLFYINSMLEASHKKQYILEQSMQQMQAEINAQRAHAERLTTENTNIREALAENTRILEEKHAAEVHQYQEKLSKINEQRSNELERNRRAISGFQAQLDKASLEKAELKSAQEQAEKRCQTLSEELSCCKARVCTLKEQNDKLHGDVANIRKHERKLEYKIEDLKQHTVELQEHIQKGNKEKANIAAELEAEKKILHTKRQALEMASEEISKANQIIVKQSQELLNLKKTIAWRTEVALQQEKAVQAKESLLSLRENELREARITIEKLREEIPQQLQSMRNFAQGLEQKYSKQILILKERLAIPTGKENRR

[2] = target: T2, GST-tagged Gorab (Drosophila) (UniProt Q8IQQ4); experiment: pull-down
T2 sequence: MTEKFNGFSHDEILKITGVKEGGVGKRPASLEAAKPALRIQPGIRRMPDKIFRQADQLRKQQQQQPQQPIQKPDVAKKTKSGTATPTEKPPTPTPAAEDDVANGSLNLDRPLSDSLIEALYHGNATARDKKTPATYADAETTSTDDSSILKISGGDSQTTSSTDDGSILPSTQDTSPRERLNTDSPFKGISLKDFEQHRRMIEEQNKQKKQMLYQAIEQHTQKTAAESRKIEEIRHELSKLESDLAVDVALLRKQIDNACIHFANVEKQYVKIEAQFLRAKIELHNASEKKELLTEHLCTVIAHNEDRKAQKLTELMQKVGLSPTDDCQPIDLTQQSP

[3] = target: T3, full length Gorab tagged with GFP (transient transfection) (Drosophila) (UniProt Q8IQQ4); experiment: co-IP
T3 sequence: T2 sequence

[4] = target: T4, Gorab^ΔSID tagged with GFP (transient transfection) (Drosophila) (UniProt Q8IQQ4); experiment: co-IP
T4 sequence: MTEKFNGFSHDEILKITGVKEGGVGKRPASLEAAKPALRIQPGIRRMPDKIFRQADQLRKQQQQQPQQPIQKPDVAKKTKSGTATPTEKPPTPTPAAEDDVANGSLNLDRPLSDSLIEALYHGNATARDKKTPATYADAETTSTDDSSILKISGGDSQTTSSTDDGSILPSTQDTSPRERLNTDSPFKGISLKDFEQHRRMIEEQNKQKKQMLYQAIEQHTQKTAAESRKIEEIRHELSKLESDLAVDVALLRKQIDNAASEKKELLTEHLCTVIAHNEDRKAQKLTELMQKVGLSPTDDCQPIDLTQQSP

B1: 35S-Met-labeled Gorab deletion aa260-266 (protein, UniProt Q8IQQ4)
chain: MTEKFNGFSHDEILKITGVKEGGVGKRPASLEAAKPALRIQPGIRRMPDKIFRQADQLRKQQQQQPQQPIQKPDVAKKTKSGTATPTEKPPTPTPAAEDDVANGSLNLDRPLSDSLIEALYHGNATARDKKTPATYADAETTSTDDSSILKISGGDSQTTSSTDDGSILPSTQDTSPRERLNTDSPFKGISLKDFEQHRRMIEEQNKQKKQMLYQAIEQHTQKTAAESRKIEEIRHELSKLESDLAVDVALLRKQIDNAEKQYVKIEAQFLRAKIELHNASEKKELLTEHLCTVIAHNEDRKAQKLTELMQKVGLSPTDDCQPIDLTQQSP
modifications: 35S-methionine label
- binding [1]: binds

B5: myc-tagged Sas6 (protein, UniProt Q9VAC8 1-472)
chain: T1 sequence
- binding [3]: binds
- binding [4]: no binding

B6: 35S-Met-labeled Gorab fragment 191-318 (minimal Sas6 interacting region) (domain or fragment, UniProt Q8IQQ4 191-318)
chain: SLKDFEQHRRMIEEQNKQKKQMLYQAIEQHTQKTAAESRKIEEIRHELSKLESDLAVDVALLRKQIDNACIHFANVEKQYVKIEAQFLRAKIELHNASEKKELLTEHLCTVIAHNEDRKAQKLTELMQ
modifications: 35S-methionine label
- binding [1]: binds

B8: 35S-Met-labeled Gorab deletion aa267-281 (protein, UniProt Q8IQQ4)
chain: MTEKFNGFSHDEILKITGVKEGGVGKRPASLEAAKPALRIQPGIRRMPDKIFRQADQLRKQQQQQPQQPIQKPDVAKKTKSGTATPTEKPPTPTPAAEDDVANGSLNLDRPLSDSLIEALYHGNATARDKKTPATYADAETTSTDDSSILKISGGDSQTTSSTDDGSILPSTQDTSPRERLNTDSPFKGISLKDFEQHRRMIEEQNKQKKQMLYQAIEQHTQKTAAESRKIEEIRHELSKLESDLAVDVALLRKQIDNACIHFANVIELHNASEKKELLTEHLCTVIAHNEDRKAQKLTELMQKVGLSPTDDCQPIDLTQQSP
modifications: 35S-methionine label
- binding [1]: binds

B9: 35S-Met-labeled full length Gorab (protein, UniProt Q8IQQ4 1-338)
chain: T2 sequence
modifications: 35S-methionine label
- binding [1]: binds

The next lines start with the values.

- binding [1]: binds
B2: 35S-Met-labeled Gorab deletion aa282-286 (protein, UniProt Q8IQQ4)
chain: MTEKFNGFSHDEILKITGVKEGGVGKRPASLEAAKPALRIQPGIRRMPDKIFRQADQLRKQQQQQPQQPIQKPDVAKKTKSGTATPTEKPPTPTPAAEDDVANGSLNLDRPLSDSLIEALYHGNATARDKKTPATYADAETTSTDDSSILKISGGDSQTTSSTDDGSILPSTQDTSPRERLNTDSPFKGISLKDFEQHRRMIEEQNKQKKQMLYQAIEQHTQKTAAESRKIEEIRHELSKLESDLAVDVALLRKQIDNACIHFANVEKQYVKIEAQFLRAKASEKKELLTEHLCTVIAHNEDRKAQKLTELMQKVGLSPTDDCQPIDLTQQSP
modifications: 35S-methionine label

- binding [2]: binds
B3: 35S-labelled Sas6 fragment 351-462 (Gorab Interacting Region) (domain or fragment, UniProt Q9VAC8 351-462)
chain: AEKKILHTKRQALEMASEEISKANQIIVKQSQELLNLKKTIAWRTEVALQQEKAVQAKESLLSLRENELREARITIEKLREEIPQQLQSMRNFAQGLEQKYSKQILILKERL
modifications: 35S label

- binding [2]: binds
B4: 35S-Met-labelled full-length Sas6 (protein, UniProt Q9VAC8 1-472)
chain: T1 sequence
modifications: 35S-methionine label

- binding [1]: no binding
B7: 35S-Met-labeled Gorab 27aa deletion aa260-286 (ΔSID) (protein, UniProt Q8IQQ4)
chain: T4 sequence
modifications: 35S-methionine label
